# Entries after “also recorded” stand apart in the source; their conditions may differ. For at least one compound, name, drawing or mass did not settle the structure.
# Tested on: isolated rat bladder smooth muscle cell
# Assay: Current clamp recording of resting membrane potential, rat cells
# Format: cell-based
# Conditions: 100 nM Ach after retigabine
# From the text: Rat detrusor cells are isolated in a manner previously described for guinea-pig detrusor (Sheldon J H, Norton N W and Argentieri T M (1997) Inhibition of guinea pig detrusor contraction by NS-1619 is associated with activation of BKCa and inhibition of calcium currents. J Pharmacol Exp Thera 283(3): 1193–1200). Male Sprague-Dawley rats (Charles River, Wilmington, Mass.; 200–400 grams) are euthanized by CO2 inhalation and exsanguination. Their urinary bladders are rapidly removed and placed in 37° C. physiological solution with the following composition (mM): Na glutamate (80.0), NaCl (54.7), KCl (5.0), NaHCO3 (25.0), MgCl2.2H2O (2.5), D-glucose (11.8) and CaCl2 (0.2) gassed with O2—CO2, 95%/5% for a final pH of 7.4. The dome of the bladder is isolated from the trigone region and the mucosa is removed. This tissue is then cut into 2–3 mm wide strips and placed into fresh buffer for 1 hour. Tissues are then transferred into 10 ml of an isolation buffer containing the above composition plus collagenase type VIII (1.0 mg/ml) and pronase (0.25 mg/ml). […]
# Cell resting membrane potential (RMP) is measured in current clamp using the above mentioned instrumentation and pipette solutions. […] After this time, various antagonists (linopirdine, XE-991) are added to the perfusate and RMP is recorded for an additional 5 minutes. […]
compound,measurement,value
"CC(=O)OCC[N+](C)(C)C [Ach, acetylcholine]",antagonism of retigabine-induced hyperpolarization,depolarization; also recorded: antagonized
